From the supplement of paper PMC11732987, “Enantioselective OTUD7B fragment discovery through chemoproteomics screening and high-throughput optimisation” (Communications Chemistry, 2025) come the findings set out here.

Amino acid sequences for entries named in this document (tags omitted). A change or cut given only in a name is not applied to a line headed by its entry. Residues count along the entry.
UniProt Q99615: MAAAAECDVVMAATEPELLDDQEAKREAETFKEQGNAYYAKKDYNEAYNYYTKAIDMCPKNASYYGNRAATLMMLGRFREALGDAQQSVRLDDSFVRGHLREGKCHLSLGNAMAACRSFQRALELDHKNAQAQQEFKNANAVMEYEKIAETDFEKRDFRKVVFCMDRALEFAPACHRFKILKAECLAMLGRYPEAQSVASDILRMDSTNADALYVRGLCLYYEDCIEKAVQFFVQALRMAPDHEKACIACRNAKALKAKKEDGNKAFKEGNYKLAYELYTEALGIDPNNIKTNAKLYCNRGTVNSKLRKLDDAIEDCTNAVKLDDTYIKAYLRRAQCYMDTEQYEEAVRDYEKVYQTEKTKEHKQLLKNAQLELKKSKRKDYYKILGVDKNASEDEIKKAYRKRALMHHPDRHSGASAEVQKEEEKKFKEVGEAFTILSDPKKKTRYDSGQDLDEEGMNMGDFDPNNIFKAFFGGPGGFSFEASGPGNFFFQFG
UniProt Q08211: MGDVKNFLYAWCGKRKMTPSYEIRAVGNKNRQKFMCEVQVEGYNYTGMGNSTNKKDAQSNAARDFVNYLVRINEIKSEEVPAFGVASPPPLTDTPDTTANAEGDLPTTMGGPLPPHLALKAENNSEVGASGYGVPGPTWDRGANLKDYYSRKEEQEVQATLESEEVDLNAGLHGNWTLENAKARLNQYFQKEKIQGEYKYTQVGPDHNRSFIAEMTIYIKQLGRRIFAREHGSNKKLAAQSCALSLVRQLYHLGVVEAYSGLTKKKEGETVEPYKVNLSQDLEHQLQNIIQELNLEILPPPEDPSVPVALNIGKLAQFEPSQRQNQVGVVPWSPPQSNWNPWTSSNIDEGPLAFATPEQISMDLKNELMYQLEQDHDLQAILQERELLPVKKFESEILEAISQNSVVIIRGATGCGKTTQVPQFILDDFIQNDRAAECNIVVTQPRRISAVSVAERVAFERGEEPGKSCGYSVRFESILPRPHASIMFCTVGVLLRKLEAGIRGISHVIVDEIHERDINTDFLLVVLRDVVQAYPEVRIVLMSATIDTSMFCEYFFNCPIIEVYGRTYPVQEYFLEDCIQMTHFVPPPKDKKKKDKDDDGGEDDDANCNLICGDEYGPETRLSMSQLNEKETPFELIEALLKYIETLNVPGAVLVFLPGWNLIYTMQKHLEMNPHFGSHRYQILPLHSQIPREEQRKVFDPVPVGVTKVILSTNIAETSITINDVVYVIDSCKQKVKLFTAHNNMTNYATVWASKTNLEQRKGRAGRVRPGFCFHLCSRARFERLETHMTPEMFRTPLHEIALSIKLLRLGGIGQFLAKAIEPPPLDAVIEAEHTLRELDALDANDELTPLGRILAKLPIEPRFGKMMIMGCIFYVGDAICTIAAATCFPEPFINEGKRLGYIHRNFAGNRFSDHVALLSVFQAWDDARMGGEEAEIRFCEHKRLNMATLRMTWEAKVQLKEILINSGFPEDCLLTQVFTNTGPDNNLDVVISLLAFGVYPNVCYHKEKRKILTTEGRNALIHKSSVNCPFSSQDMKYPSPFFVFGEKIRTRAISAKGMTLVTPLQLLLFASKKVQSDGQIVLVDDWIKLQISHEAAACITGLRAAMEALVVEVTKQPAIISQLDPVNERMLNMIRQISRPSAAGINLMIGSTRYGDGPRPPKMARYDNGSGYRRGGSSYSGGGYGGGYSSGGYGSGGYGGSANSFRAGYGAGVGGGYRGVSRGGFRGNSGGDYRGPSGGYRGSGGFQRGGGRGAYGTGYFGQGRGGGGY
UniProt Q8TDM6: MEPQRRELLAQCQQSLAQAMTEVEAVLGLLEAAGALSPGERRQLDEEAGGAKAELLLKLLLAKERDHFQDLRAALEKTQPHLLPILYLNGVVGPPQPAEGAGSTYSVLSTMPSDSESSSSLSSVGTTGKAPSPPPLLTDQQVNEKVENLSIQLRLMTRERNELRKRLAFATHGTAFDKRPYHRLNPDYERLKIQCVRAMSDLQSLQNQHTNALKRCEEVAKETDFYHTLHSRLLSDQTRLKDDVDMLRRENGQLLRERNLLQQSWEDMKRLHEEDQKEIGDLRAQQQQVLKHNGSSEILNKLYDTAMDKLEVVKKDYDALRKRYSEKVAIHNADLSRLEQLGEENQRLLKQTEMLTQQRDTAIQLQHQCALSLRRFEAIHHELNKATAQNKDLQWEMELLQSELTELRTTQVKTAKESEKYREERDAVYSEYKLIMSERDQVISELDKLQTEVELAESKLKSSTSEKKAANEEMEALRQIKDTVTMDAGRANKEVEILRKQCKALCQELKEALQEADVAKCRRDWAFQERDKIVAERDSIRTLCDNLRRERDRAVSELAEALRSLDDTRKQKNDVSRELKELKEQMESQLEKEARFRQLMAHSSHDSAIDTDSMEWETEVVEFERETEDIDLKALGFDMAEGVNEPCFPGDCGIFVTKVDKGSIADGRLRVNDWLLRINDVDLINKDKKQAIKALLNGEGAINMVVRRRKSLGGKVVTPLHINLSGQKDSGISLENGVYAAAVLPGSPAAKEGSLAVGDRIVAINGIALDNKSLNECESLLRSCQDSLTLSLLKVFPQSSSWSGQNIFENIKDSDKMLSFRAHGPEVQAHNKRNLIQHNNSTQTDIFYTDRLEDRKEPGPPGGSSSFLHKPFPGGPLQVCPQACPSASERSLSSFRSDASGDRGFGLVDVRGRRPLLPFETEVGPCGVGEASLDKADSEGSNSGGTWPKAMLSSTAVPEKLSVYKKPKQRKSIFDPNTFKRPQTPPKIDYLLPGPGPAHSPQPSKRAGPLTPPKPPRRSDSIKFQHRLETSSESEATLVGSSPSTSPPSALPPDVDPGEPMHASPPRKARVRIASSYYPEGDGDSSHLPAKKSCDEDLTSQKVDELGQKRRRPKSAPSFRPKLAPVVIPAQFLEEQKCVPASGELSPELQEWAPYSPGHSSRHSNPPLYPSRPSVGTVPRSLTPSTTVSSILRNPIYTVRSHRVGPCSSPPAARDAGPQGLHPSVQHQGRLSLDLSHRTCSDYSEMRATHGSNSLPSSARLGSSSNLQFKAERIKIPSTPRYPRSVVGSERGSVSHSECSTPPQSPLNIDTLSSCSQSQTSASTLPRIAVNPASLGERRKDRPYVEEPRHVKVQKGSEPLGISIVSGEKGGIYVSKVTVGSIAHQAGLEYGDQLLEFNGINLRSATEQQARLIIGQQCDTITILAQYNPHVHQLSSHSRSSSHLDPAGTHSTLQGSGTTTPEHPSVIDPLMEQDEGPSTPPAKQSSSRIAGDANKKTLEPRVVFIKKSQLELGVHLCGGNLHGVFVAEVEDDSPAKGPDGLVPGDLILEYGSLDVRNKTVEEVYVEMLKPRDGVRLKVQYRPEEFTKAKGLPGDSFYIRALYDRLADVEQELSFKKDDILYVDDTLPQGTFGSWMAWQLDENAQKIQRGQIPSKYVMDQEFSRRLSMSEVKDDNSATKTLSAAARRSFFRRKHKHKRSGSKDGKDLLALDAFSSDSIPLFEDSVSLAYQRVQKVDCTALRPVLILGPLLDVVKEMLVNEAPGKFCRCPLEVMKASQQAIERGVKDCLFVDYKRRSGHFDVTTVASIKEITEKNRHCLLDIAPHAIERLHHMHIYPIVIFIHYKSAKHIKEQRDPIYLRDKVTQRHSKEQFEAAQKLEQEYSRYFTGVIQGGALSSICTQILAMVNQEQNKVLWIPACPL
UniProt Q14147: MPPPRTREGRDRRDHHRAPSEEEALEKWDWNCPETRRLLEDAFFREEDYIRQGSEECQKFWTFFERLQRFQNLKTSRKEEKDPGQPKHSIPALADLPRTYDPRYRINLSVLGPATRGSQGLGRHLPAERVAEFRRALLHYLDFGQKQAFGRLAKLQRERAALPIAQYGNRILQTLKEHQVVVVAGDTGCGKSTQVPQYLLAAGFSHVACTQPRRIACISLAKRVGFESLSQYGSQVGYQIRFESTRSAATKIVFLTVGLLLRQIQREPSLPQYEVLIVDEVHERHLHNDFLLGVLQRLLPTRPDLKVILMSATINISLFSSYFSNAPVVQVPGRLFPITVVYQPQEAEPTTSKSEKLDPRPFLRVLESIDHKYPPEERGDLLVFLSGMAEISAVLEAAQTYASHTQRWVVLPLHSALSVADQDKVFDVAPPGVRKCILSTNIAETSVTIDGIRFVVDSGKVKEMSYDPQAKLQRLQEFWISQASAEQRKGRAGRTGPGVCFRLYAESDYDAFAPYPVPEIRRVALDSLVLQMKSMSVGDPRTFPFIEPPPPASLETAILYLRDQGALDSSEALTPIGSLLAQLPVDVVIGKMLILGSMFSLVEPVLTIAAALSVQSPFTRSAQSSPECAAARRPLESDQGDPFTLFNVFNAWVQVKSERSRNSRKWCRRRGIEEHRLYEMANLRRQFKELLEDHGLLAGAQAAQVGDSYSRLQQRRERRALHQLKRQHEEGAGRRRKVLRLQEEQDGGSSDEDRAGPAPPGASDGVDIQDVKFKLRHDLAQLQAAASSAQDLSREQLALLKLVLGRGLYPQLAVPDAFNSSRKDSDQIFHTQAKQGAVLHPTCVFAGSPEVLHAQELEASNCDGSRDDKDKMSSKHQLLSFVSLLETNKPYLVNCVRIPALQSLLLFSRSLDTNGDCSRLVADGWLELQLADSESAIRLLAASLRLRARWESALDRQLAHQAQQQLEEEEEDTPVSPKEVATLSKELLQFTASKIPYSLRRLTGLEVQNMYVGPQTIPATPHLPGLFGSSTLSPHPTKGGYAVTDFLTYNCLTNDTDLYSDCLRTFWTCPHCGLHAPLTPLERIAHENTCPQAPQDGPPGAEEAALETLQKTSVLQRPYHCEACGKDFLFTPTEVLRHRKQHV
UniProt Q8IWF6, 200-221: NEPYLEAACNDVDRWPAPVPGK
UniProt Q15398: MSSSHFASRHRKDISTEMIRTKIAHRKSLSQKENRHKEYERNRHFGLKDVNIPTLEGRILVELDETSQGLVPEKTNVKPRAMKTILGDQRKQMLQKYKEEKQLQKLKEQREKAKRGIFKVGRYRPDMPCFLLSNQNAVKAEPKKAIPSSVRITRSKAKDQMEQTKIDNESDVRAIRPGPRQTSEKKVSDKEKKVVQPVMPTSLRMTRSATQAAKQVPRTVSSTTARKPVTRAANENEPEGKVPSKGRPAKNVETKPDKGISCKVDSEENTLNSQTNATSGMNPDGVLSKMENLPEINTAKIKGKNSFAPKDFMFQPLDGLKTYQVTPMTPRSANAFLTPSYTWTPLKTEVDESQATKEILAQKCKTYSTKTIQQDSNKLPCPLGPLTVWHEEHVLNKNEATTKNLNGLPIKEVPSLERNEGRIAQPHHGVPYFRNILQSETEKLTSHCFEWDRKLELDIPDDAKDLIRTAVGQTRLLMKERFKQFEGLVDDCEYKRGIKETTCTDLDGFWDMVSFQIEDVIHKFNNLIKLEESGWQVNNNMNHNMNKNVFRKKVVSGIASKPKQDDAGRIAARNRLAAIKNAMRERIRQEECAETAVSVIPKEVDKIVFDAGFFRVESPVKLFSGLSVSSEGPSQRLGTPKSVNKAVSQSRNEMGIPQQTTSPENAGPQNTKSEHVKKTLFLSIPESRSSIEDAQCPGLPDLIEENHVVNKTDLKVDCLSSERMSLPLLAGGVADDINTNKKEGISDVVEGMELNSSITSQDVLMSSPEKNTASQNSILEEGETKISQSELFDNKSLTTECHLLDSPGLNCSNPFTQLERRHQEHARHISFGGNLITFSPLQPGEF
UniProt Q86Y56: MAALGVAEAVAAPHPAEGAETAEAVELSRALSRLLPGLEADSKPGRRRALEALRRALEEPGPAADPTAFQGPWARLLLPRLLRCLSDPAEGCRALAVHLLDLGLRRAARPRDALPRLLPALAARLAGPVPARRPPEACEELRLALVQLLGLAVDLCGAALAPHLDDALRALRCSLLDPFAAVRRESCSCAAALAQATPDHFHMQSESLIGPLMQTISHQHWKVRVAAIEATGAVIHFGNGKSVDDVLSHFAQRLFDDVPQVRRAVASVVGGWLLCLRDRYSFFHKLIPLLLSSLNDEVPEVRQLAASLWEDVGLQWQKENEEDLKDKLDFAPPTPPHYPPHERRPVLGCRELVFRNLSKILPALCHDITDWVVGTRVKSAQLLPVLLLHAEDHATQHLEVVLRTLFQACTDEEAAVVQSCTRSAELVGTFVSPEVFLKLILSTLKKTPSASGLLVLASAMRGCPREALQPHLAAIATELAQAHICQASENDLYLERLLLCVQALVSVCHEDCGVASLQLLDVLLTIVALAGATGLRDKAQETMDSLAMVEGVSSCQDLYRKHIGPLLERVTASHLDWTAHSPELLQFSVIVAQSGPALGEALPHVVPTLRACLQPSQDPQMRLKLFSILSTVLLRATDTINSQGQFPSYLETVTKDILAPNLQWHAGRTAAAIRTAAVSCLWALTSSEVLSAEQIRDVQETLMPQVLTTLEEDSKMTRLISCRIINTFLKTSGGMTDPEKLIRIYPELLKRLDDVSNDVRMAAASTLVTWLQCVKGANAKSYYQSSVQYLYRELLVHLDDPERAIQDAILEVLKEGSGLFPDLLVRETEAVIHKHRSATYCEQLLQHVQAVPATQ
UniProt Q12882, 656-678: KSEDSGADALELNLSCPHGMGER

The list shows a part of the results. The data scatter; read single values as rough.

Compound in one assay: ClCC(=O)N[C@@H]1CCCc2ccccc12
Kind of assay: log2 mean competition ratio of IA-DTB cysteine labelling (DMSO/compound) (log2 ratio); higher = stronger cysteine engagement by compound. Conditions: 200 µM; treatment time: 4 h; cell line lysate: HEK293T. The procedure: (§1)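 IA-DTB competitive cysteine chemoproteomics in HEK293T RIPA lysate. Lysates were treated with compound 29 or 30 at 50 or 200 µM for 4 h, then IA-DTB (500 µM, 1 h), trypsin-digested, NeutrAvidin-enriched and analysed by diaPASEF. Competition ratio = intensity DMSO / intensity compound (n=4 treated, n=64 DMSO); binding: mean log2 CR ≥ 1 and p ≤ 0.05 plus QC filters. Target is the cysteine site.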
For DENND4C C1105 (UniProt Q5VZ89), the “log2 mean competition ratio” value turned out to be 0.0299.
Still for that read-out and setting: the figure for DHX29 C749 (UniProt Q7Z478) is 0.0518; for DNAJC7 C58 (UniProt Q99615) it is -0.154.
Same read-out and setting: the figure for DGCR8 C91 (UniProt Q8WYQ5) is 0.363.
Same read-out and setting: the figure for DNMT1 C41 (UniProt P26358) is 0.0544; for DPF2 C24 (UniProt Q92785) it is 0.057.
Turning to DHCR7 C380 (UniProt Q9UBM7), the “log2 mean competition ratio” value is -0.165.
Still for that read-out and setting: the figure for DHX9 C1029 (UniProt Q08211) is 0.174; for DOCK1 C595 (UniProt Q14185) it is 0.00861.
The same measure, in the same setting: the figure for DLG5 C1816 (UniProt Q8TDM6) is 0.387.
Same read-out and setting: with DHX34 C500 (UniProt Q14147) the figure was 0.202.
Consider DIPK2A C135 (UniProt Q8NDZ4), for which the “log2 mean competition ratio” value is -0.138.
Same read-out and setting: the figure for DPP9 C184 (UniProt Q86TI2) is 0.0505; for DNAJB4 C175 (UniProt Q9UDY4) it is -0.115; for DIAPH3 C680 (UniProt Q9NSV4) it is 0.309.
The same measure, in the same setting: the figure for DHX15 C774 (UniProt O43143) is 0.0947.
Same read-out and setting: with DNM1L C431 (UniProt O00429) the figure was 0.224; with DNTTIP2 C618 (UniProt Q5QJE6), -0.444; with DHX34 C628 (UniProt Q14147), -0.0583.
Turning to DPYSL2 C248 (UniProt Q16555), the “log2 mean competition ratio” value stood at 0.141.
Still for that read-out and setting: the figure for DENND6A C208 (UniProt Q8IWF6) is 0.211; for DLGAP5 C592 (UniProt Q15398) it is -0.357; for DHX16 C714 (UniProt O60231) it is -0.18.
Still for that read-out and setting: the figure for DIPK1A C354 (UniProt Q5T7M9) is 0.517.
As to DNAAF5 C841 (UniProt Q86Y56), the “log2 mean competition ratio” value is -0.206.
Regarding DNAJC2 C140 (UniProt Q99543), the “log2 mean competition ratio” value is -0.0228.
Same read-out and setting: the figure for DNAJC7 C337 (UniProt Q99615) is 0.0766; for DIAPH1 C964 it is 0.085; for DPY19L3 C684 (UniProt Q6ZPD9) it is 0.405.
Same read-out and setting: with DOCK4 C293 the figure was -0.0179.
As to DPYSL5 C22, the “log2 mean competition ratio” value is -0.222.
On the same count and under the same terms, with DOT1L C1075 (UniProt Q8TEK3) the figure was 0.0325; with DIAPH3 C1158 (UniProt Q9NSV4), 0.0488.
On the same count and under the same terms, the figure for DIPK1A C347 (UniProt Q5T7M9) is 0.175; for DPYD C671 (UniProt Q12882) it is 0.0126.
On to DHX16 C37 (UniProt O60231), for which the “log2 mean competition ratio” value was 0.0863.
On the same count and under the same terms, with DHX34 C57 (UniProt Q14147) the figure was 0.618; with DNM3 C453, -0.209.

Compound in the next assay: ClCC(=O)N[C@H]1CCCc2ccccc12
Described as above. Particulars: 50 µM; treatment time: 4 h; cell line lysate: HEK293T. The procedure: as §1
With DENND4C C1105 (UniProt Q5VZ89), the “log2 mean competition ratio” value is -0.437.
Same read-out and setting: with DHX29 C749 (UniProt Q7Z478) the figure was 0.196.
Same read-out and setting: with DNAJC7 C58 (UniProt Q99615) the figure was 0.399; with DGCR8 C91 (UniProt Q8WYQ5), -0.315.
On the same count and under the same terms, the figure for DNMT1 C41 (UniProt P26358) is 0.113.
DPF2 C24 (UniProt Q92785): the “log2 mean competition ratio” value was determined as 0.167.
In the case of DHCR7 C380 (UniProt Q9UBM7), the “log2 mean competition ratio” value worked out at 0.0253.
Still for that read-out and setting: the figure for DHX9 C1029 (UniProt Q08211) is 0.261; for DOCK1 C595 (UniProt Q14185) it is -0.0317.
Regarding DLG5 C1816 (UniProt Q8TDM6), the “log2 mean competition ratio” value was -0.697.
Consider DHX34 C500 (UniProt Q14147), for which the “log2 mean competition ratio” value is 0.133.
Same read-out and setting: with DIPK2A C135 (UniProt Q8NDZ4) the figure was 0.0282; with DPP9 C184 (UniProt Q86TI2), -0.176; with DNAJB4 C175 (UniProt Q9UDY4), -0.426.
With DIAPH3 C680 (UniProt Q9NSV4), the “log2 mean competition ratio” value is -0.128.
Still for that read-out and setting: the figure for DHX15 C774 (UniProt O43143) is 0.417; for DNM1L C431 (UniProt O00429) it is -0.647; for DNTTIP2 C618 (UniProt Q5QJE6) it is 0.339.
On the same count and under the same terms, with DHX34 C628 (UniProt Q14147) the figure was 0.0271; with DPYSL2 C248 (UniProt Q16555), 0.504; with DENND6A C208 (UniProt Q8IWF6), 0.418.
As for DLGAP5 C592 (UniProt Q15398), the “log2 mean competition ratio” value is -0.176.
Same read-out and setting: with DHX16 C714 (UniProt O60231) the figure was 0.373.
Same read-out and setting: with DIPK1A C354 (UniProt Q5T7M9) the figure was 0.0436.
Still for that read-out and setting: with DNAAF5 C841 (UniProt Q86Y56) the figure was 0.304.
On to DNAJC2 C140 (UniProt Q99543), for which the “log2 mean competition ratio” value was -0.556.
Same read-out and setting: with DNAJC7 C337 (UniProt Q99615) the figure was 0.436; with DIAPH1 C964, -0.115; with DPY19L3 C684 (UniProt Q6ZPD9), 0.588.
For DOCK4 C293, the “log2 mean competition ratio” value came to 0.165.
Same read-out and setting: with DPYSL5 C22 the figure was 1.23.
The same measure, in the same setting: the figure for DOT1L C1075 (UniProt Q8TEK3) is -0.284; for DIAPH3 C1158 (UniProt Q9NSV4) it is -0.118; for DIPK1A C347 (UniProt Q5T7M9) it is -0.291.
The same measure, in the same setting: with DPYD C671 (UniProt Q12882) the figure was -0.317; with DHX16 C37 (UniProt O60231), -0.176; with DHX34 C57 (UniProt Q14147), 0.161.
With DNM3 C453, the “log2 mean competition ratio” value was 0.21.

The same assay, now with this note: 200 µM; treatment time: 4 h; cell line lysate: HEK293T.
Consider DENND4C C1105 (UniProt Q5VZ89), for which the “log2 mean competition ratio” value was -0.125.
On the same count and under the same terms, with DHX29 C749 (UniProt Q7Z478) the figure was 0.168; with DNAJC7 C58 (UniProt Q99615), 0.0834.
Turning to DGCR8 C91 (UniProt Q8WYQ5), the “log2 mean competition ratio” value was determined as 0.198.
Still for that read-out and setting: with DNMT1 C41 (UniProt P26358) the figure was 0.0841.
The same measure, in the same setting: with DPF2 C24 (UniProt Q92785) the figure was -0.151; with DHCR7 C380 (UniProt Q9UBM7), -0.156.
Regarding DHX9 C1029 (UniProt Q08211), the “log2 mean competition ratio” value was found to be 0.296.
On the same count and under the same terms, with DOCK1 C595 (UniProt Q14185) the figure was -0.0986.
Same read-out and setting: with DLG5 C1816 (UniProt Q8TDM6) the figure was 0.317.
The same measure, in the same setting: the figure for DHX34 C500 (UniProt Q14147) is 0.194; for DIPK2A C135 (UniProt Q8NDZ4) it is 0.406; for DPP9 C184 (UniProt Q86TI2) it is 0.0485.
Consider DNAJB4 C175 (UniProt Q9UDY4), for which the “log2 mean competition ratio” value is -0.0537.
On the same count and under the same terms, with DIAPH3 C680 (UniProt Q9NSV4) the figure was 0.539.
DHX15 C774 (UniProt O43143): the “log2 mean competition ratio” value is 0.024.
Same read-out and setting: with DNM1L C431 (UniProt O00429) the figure was 0.104; with DNTTIP2 C618 (UniProt Q5QJE6), -0.467.
On the same count and under the same terms, the figure for DHX34 C628 (UniProt Q14147) is 0.0165; for DPYSL2 C248 (UniProt Q16555) it is -0.0628.
Consider DENND6A C208 (UniProt Q8IWF6), for which the “log2 mean competition ratio” value is -0.123.
As to DLGAP5 C592 (UniProt Q15398), the “log2 mean competition ratio” value was -0.244.
Same read-out and setting: the figure for DHX16 C714 (UniProt O60231) is -0.0327; for DIPK1A C354 (UniProt Q5T7M9) it is 0.402.
For the target DNAAF5 C841 (UniProt Q86Y56), the “log2 mean competition ratio” value was -0.284.
Regarding DNAJC2 C140 (UniProt Q99543), the “log2 mean competition ratio” value is -0.157.
The same measure, in the same setting: the figure for DNAJC7 C337 (UniProt Q99615) is 0.0245.
Take DIAPH1 C964: the “log2 mean competition ratio” value is -0.287.
In the case of DPY19L3 C684 (UniProt Q6ZPD9), the “log2 mean competition ratio” value amounted to 0.0544.
On the same count and under the same terms, with DOCK4 C293 the figure was -0.1; with DPYSL5 C22, -0.437.
Same read-out and setting: the figure for DOT1L C1075 (UniProt Q8TEK3) is -0.0691; for DIAPH3 C1158 (UniProt Q9NSV4) it is 0.21; for DIPK1A C347 (UniProt Q5T7M9) it is 0.28.
Take DPYD C671 (UniProt Q12882): the “log2 mean competition ratio” value came out at 0.0449.
On the same count and under the same terms, with DHX16 C37 (UniProt O60231) the figure was 0.0184.
Same read-out and setting: with DHX34 C57 (UniProt Q14147) the figure was 0.652.
Regarding DNM3 C453, the “log2 mean competition ratio” value is -0.0852.
